Assay results: ChEMBL document CHEMBL1156762, “Deciphering the mechanism of carbonic anhydrase inhibition with coumarins and thiocoumarins” (J Med Chem, 2010)

The chains behind the UniProt entries cited, without tags or fusion partners. Where a name states a change or a piece, a line headed by the entry shows the natural chain unless it says otherwise.
UniProt P07451: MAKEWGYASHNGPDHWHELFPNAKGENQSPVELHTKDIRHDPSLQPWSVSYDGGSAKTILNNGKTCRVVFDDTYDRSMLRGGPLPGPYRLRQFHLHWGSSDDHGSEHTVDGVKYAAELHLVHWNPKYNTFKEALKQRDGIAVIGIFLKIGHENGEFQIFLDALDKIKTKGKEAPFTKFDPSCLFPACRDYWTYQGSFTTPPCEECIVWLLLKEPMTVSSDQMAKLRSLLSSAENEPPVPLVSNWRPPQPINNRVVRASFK
UniProt O43570: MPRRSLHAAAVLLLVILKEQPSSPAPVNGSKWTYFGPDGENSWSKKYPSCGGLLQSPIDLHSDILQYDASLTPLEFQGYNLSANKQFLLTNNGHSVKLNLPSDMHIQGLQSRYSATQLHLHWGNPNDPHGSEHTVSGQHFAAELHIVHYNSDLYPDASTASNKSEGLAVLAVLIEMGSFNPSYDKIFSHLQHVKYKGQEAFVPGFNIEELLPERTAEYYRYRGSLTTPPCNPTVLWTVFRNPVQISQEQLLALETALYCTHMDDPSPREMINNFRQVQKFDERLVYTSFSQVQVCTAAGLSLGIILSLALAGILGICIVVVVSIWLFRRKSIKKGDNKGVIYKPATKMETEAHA

Assays:
[1] = molecular target: Carbonic anhydrase 3 (Homo sapiens, UniProt P07451)
[2] = molecular target: Carbonic anhydrase 12 (Homo sapiens, UniProt O43570)

Ki [1]: 8.1 µM
Ki [2]: 6.5 µM
Compound: O=c1ccc2ccc(OCc3ccccc3)cc2o1 [7-BENZYLOXYCOUMARIN]
